The supplement of paper PMC11237882
The other results are listed elsewhere or left out. Values are worked out from sequencing counts and are noisy.

T1: Homer1 EVH1 domain
T1 chain: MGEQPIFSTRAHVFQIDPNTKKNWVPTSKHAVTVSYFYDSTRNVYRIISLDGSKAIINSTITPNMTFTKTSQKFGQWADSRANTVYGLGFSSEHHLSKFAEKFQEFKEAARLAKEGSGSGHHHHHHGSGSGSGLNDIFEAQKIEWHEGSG


Target: T1, Homer1 EVH1 domain
Test: enrichment score (AUC of log2 frequency ratio across FACS sorting rounds) (log2 AUC); higher = stronger enrichment for Homer1 EVH1 binding

Question: With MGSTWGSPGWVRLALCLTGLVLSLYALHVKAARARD as the binder, how does the enrichment score read?
Answer: 0.577

Question: With SPSWYWDTVTKICVFLFAFVVPILIITVCYSLMLLR as the binder, how does the enrichment score read?
Answer: -1.5

Question: With SGKVVWITATMPYVVLTALLLRGVTLPGAIDGIRAY as the binder, how does the enrichment score read?
Answer: 0.779

Question: With SFLFSFYMASLFLGILAMAYEEEKQRVGEISKKIEP as the binder, how does the enrichment score read?
Answer: 2.84

Question: For CWLDFLIVNISLISLTAKILEYSEVAPIKALRPLRA, which enrichment score is on record?
Answer: -0.993

Question: For VAMVMDHILLGVFMLVCIIGTLAVFAGRLIELNQQG, which enrichment score is on record?
Answer: 1.68

Question: With WPTFQILMWSLSNSWVALKDLVLLLFTFIFFSAAFG as the binder, how does the enrichment score read?
Answer: 0.34

Question: With GPQKTAVAVLCTLLGLLSALENVAVLYLILSSHQLR as the binder, how does the enrichment score read?
Answer: 3.07

Question: DEFQLLHRHRELFTLFIVLATFLLSLFCVTNGGIYV was tested. Which enrichment score did it give?
Answer: 2.83

Question: For IFVFVCVFGTIGMFLQPLFQNYTTTTFLHSDHSAPS, which enrichment score is on record?
Answer: 2.68
